The campaign covered roughly 31,000 sequences. About 1,400 (4.5%) were called active.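 How the source made its calls: active means median seed-adjusted z-score above 1 or below -1; inactive means the rest.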 The list shows a part of the results.

A short description of the assay: Novel Modifiers of Survival Motor Neuron (SMN) Protein: Gene Identification via Genome-wide siRNA Screen.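 Further: luminescence tracks full-length SMN protein made from the SMN2 reporter.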 To be noted: HEK293T SMN2-luciferase reporter, siRNA knockdown, 72 h; actives lie on both sides. An outline of the steps:
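Genome-wide siRNA screen (10418 genes, 3 siRNAs each, 1 pmol per well) by reverse transfection in HEK293T cells stably carrying an SMN2-luciferase reporter; luminescence after 72 hours, normalized to negative-control siRNA, log10-transformed, MAD-scored.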
Take CCAUCCUUGCUAGAGAAAATT against SULT1C4: the median seed-adjusted z-score is inactive: 0.00352.
In the case of GGGUCGAAUUUCUUCUAGATT against ASNSD1 it was inactive: 0.437; in that of CACUGAGGAUAAACCCUAUTT against ZNF20, inactive: -0.359.
As to GGAUCACGAUGAAGACAAATT against CTSL3, the median seed-adjusted z-score is active: 1.07.
For GGAAGGUGAUGUACGCCUUTT against DBNL the value was inactive: 0.398; for AAUCCUCCUUCGUAUUAUATT against LITAF, inactive: 0.0771; for GACUUUCAGUUCUUACGAUTT against CCNB3, inactive: 0.
Take CCACAGAACCUGAAUCGCUTT against KRT84: the median seed-adjusted z-score was inactive: -0.645.
For the sequence GGAUGAAAACUUCAAACGATT against OPRM1, the median seed-adjusted z-score is inactive: -0.00476.
In the case of CGGAAACGCCAGACUUCUATT against SPINK1 it was inactive: 0.292; in that of GCAUCGUGGACAUAUCUAUTT against MCM4, inactive: 0.0057; in that of CAAUAUCAAAAAUGACUUUTT against SKP1, inactive: -0.0492.
For CCGUAACCAAGGCCCAGAATT against HIST1H2BO the value was inactive: 0.634.
For CCAAAUCGAUGACCGACAATT against GPR115 the value was inactive: -0.189.
In the case of GGACGGAGAUUACAUCAAUTT against PTPN7, the median seed-adjusted z-score is inactive: -0.189.
For CAAUGAGCACUUGAAGAUUTT against TRIM65 the value was inactive: -0.599; for GGAGGGUUUUCACGAUGAATT against AP2B1, inactive: -0.214.
In the case of GGAGCGUAUCUGUGAGAAATT against FASN it was inactive: 0.282; in that of GGAGAGAAGAUUACCAUGATT against SDCBP, inactive: 0.0325.
As for AGUGGUCCCUUCACAGGAATT against GNRH2, the median seed-adjusted z-score is active: 1.13.
Take GAAUGUGACAAUACAUUUATT against ZNF431: the median seed-adjusted z-score is inactive: 0.00537.
With GACUUUGCUUUGAUUCAUATT against PRPS1L1, the median seed-adjusted z-score is inactive: 0.
As to CCUUAUGAGCAACCAAUGATT against ZFAT, the median seed-adjusted z-score was inactive: -0.183.
In the case of GAAAGCGGCUUAUCGAACATT against CUX1 it was inactive: -0.527; in that of GAUGGACAUUGAUAGCGAUTT against DTX3L, inactive: 0.0785.
For ACCUCUUCCCGAAAGGAAATT against PTGER2 the value was inactive: 0; for CCUUGUUUCUUGAGUGUUUTT against TBXA2R, inactive: 0; for CCCACUUGAUUACCCGUUATT against UBE2G2, inactive: -0.043.
As to GCUGGUGACUAUUAUCGGATT against SLC24A4, the median seed-adjusted z-score is inactive: 0.0358.
On to CGACUAUUCUUGCAAGUGUTT against ADAM28, for which the median seed-adjusted z-score was inactive: 0.211.
In the case of GCUAUGAACUGGACGAAAATT against VTN it was inactive: -0.435; in that of AGUACUACAGGACAAUUGATT against KRT17, inactive: -0.0871.
For the sequence GCUUCAAUCUGAGACCAGUTT against ZNF79, the median seed-adjusted z-score was inactive: -0.351.
In the case of GGCAAUACAUGUAUCUAAATT against PAX4 it was inactive: 0.0811; in that of “GCACUGCUUAUGAAUCAGATT against ST6GALNAC1”, inactive: -0.854; in that of GCAUGUACAAGGGAUAUAATT against CD300E, inactive: 0.337.
CAGUGGAUCUAUAUGAACATT against KIT: the median seed-adjusted z-score is inactive: -0.686.
In the case of CCAAGUUAUUGCUAUCAGATT against PPCS it was inactive: 0.
For GGUGCAUAAGGAGAACUUUTT against TRPM4 the value was inactive: 0.0519.
With CCGUAAAGGCUCAUCCAAATT against CCNI, the median seed-adjusted z-score was inactive: -0.174.
On to GGCCUAUGGUGUCCCAGUATT against CDK10, for which the median seed-adjusted z-score is inactive: 0.327.
On to CAGUUAUACUCAGAAGAGATT against ZNF155, for which the median seed-adjusted z-score was inactive: 0.698.
In the case of GAAGAGUUACUACAGUAAATT against MYT1 it was inactive: -0.292; in that of CUCCCUACGAUGUACCCUATT against MYO15A, inactive: 0.0508.
In the case of UCGUUGAUGUUGGACAAUUTT against METTL2A it was inactive: -0.49; in that of AGUGGAAGGUCCUAAAUUATT against 9-Mar, inactive: 0.261.
In the case of ACGGCUACGUGGUAAAGGATT against RPS6KA1 it was inactive: 0.194; in that of GCUCCAAUGGGUCUCAGUATT against TFDP1, inactive: 0.0449; in that of GGAUGGGCCUUGAAGCCUUTT against GPR97, inactive: -0.0155.
For GGUGUUUGAUAUACAGAGGTT against RABL2A, the median seed-adjusted z-score was inactive: 0.794.
In the case of GAAGGAAUCGAAGAAUUAATT against GTPBP10, the median seed-adjusted z-score is inactive: 0.
Turning to GAGAUGCGGUUGACCCUAATT against KIF13B, the median seed-adjusted z-score was inactive: 0.456.
CUACCGCAACCUCACCCUATT against B3GALT4: the median seed-adjusted z-score is inactive: 0.233.
For the sequence GUAUGACUAUGGAUCUAAUTT against HOXC6, the median seed-adjusted z-score was inactive: -0.137.
For GCAUUGACCUAGUCAAAUUTT against TNNI3K the value was inactive: -0.178; for CAUCGACUGUCGAUACCCATT against CDC25A, inactive: 0.235; for UGAUGACCCUGUCCCUGCATT against FOXN4, inactive: 0.15.
Consider GGCUUUUGGAGUAUGUAGATT against ZNF529, for which the median seed-adjusted z-score is inactive: -0.243.
In the case of ACCUAUUACUCGCGCCGGATT against GPR6 it was inactive: 0; in that of CAAACAAUAUGAGAGUGUUTT against IL7, inactive: 0.253.
On to GUGUGGUGAUGAUCGAAAATT against YWHAQ, for which the median seed-adjusted z-score is inactive: -0.412.
In the case of AGAUUGAGUUCACACCUGATT against MYL3 it was inactive: 0.212; in that of GCGGAAAGUUCUUCGAAUATT against SLC9A7, inactive: 0.349.
In the case of GAUGGGAUCUUUCACCAGATT against NLN it was inactive: 0.248; in that of CCCAUGCCCAGAUCAAGAATT against MAN2C1, inactive: -0.489; in that of UGAGCGAGUUGAUUUCACATT against ATF5, inactive: 0.233.
Regarding GGAGCUAGCCGAAUUCGAATT against SAT2, the median seed-adjusted z-score was inactive: -0.43.
On to ACAGCUCUGGGUACAACAATT against ZNF167, for which the median seed-adjusted z-score is inactive: 0.409.
Take GUAUCUGACUGACAUCCUUTT against PLCH2: the median seed-adjusted z-score is inactive: 0.593.
In the case of CCAUCAUGGUGACUAAGGUTT against PDLIM2 it was inactive: 0.267.
On to GGCUUCAUGUGAUAUGACATT against ZNF324, for which the median seed-adjusted z-score was inactive: 0.
In the case of GCGUAAAUAUUGACAUCUUTT against NEK4 it was inactive: -0.076; in that of CAGAGCUUCUUUUCCCUAATT against S100A10, inactive: 0.366; in that of CCGUAUAUCUGGUGGUUAUTT against PLOD2, inactive: -0.281.
For GCAUGUCUCUUCUCGAAGATT against SCPEP1, the median seed-adjusted z-score is inactive: -0.99.
In the case of CAGUUUCUGUGAAUAGGCUTT against ARNT it was inactive: -0.244.
In the case of GCAACUUUGUCAACUACAATT against RFFL, the median seed-adjusted z-score is inactive: -0.437.
In the case of CCUCCGUCAUGUUAUCAAUTT against PBX3 it was inactive: 0.847; in that of GCUAAAGACCUAAUAGUCATT against BCAT1, inactive: -0.604; in that of CAACUGGAAGAUUACUUGATT against PLD1, inactive: 0.518.
In the case of GCUUAUUAUGAGUUUAAGATT against SFRS8 it was inactive: -0.353; in that of CCUUGGAACGUGGACAGAATT against FARP1, inactive: -0.487; in that of GCUCAGUACAGGCAAGUCATT against RASL12, inactive: -0.256.
In the case of GUCGAUCAGAUGAUAAUGATT against AK2, the median seed-adjusted z-score is inactive: 0.418.
For GCCCGUUUCCGUUACCUAATT against LDHC the value was inactive: 0.537.
For the sequence GGAAGGUUUAGAAAGAAAATT against PDLIM4, the median seed-adjusted z-score was inactive: -0.637.
In the case of CAGUCCAUGUAUUACACCATT against IPO11 it was inactive: -0.245; in that of GGAUAGCAAUGGAUACUGATT against DBT, inactive: -0.976; in that of GGAGCAGGAUGUGAGUAGATT against SHPK, inactive: 0.
In the case of GAGAAAGUAUGAGCGAAAATT against ST13, the median seed-adjusted z-score was inactive: 0.286.
For GCUGUAACGAAGUUCCUGATT against TPP1 the value was inactive: -0.0334; for GGGACAAUCUUAUAGUGCATT against SSX2IP, inactive: -0.0799; for GGAUGUAAGAUCACCGUUUTT against ASMT, inactive: -0.322.
Consider GCAUUUGCCUUAGAGAAGATT against ZNF592, for which the median seed-adjusted z-score is inactive: 0.0774.
Regarding UGAGGAGGGCUAUUACAAATT against SPOCK1, the median seed-adjusted z-score was inactive: -0.596.
For CCAUGGAACUGGUUAGAUUTT against SCN8A the value was inactive: 0; for UCUGAGUAAAGUUACCUUATT against RAMP3, inactive: 0; for GAACUACGCCUCCAUCAUATT against MYCL1, inactive: 0.0658.
In the case of GCACAAAUCUCAAUAUUCATT against GPSM3 it was inactive: -0.641; in that of CAGAUGAACAUGUACGGCATT against LPAR5, inactive: 0.0711.
For GCACGUAUGAUCUCUCUAATT against RIPK2, the median seed-adjusted z-score was inactive: 0.176.
For GGAGAGGGUUGACAAAGUATT against PCYT1A the value was inactive: 0.0429; for GCACUAGACUCAGCUGUAUTT against TYSND1, inactive: -0.0298; for “CUACAACAUCCAGCCUAAATT against STON1-GTF2A1L”, inactive: 0.294.
With GGACGACACUUCAAUUAUUTT against PAPD5, the median seed-adjusted z-score is inactive: 0.325.
As to UGAACAUGAUGCACAUCUATT against RHD, the median seed-adjusted z-score is inactive: 0.496.
In the case of GGUUAAGUCAGCUUAGGUATT against DNAH7 it was inactive: 0.287; in that of GGUCUCUUCUAUCACUGUUTT against SPRY2, inactive: 0.148.
